According to US20110144302A1 (Affibody, published 2011):
Changes are numbered by the printed parent chain. Names and notes keep the numbering of the source.

Target: palivizumab
Experiment: SPR (Biacore 2000), palivizumab immobilized on CM5 chip, 1:1 Langmuir fit, estimate

B1: Z02726 (designed binder)
chain: GSSLQVDAKFWKEQQHAFYEILHLPNLTEDQRQAFIASLRKDPSQSARLLAGAKKLDDAQAPKVD
notes: Z variant, expressed as a monomer in E. coli; clone from selection round 5
Kd: 18 nM
koff: 0.045 s⁻¹
kon: 2.6e+06 M⁻¹ s⁻¹

B2: Z02742 (designed binder)
chain: B1 chain with D30G, R32K, Q33H, A37R, S38A, K41G, G52R
notes: as for B1
Kd: 5 nM
koff: 0.043 s⁻¹
kon: 9.6e+06 M⁻¹ s⁻¹
